# Measurements published in PubChem BioAssay AID493014 (National Center for Advancing Translational Sciences (NCATS), 2011).
# The whole screen tested about 340,000 compounds, of which about 170 (0.05%) were called active. The inconclusive results got no clear call from the source; some entries with a clear call stand among them for comparison. Calls follow the shape of the dose curve; as a rule, active = well fitted inhibition curve with a large enough effect in the signal ratio, with a control signal flat (not every such curve was filed as active); inconclusive = small, poorly fitted or top-dose-only effect, or effect the other way, or a change in a side signal; inactive = flat fitted curve, though single readings scatter; the % refers to the signal ratio. Where the call is inconclusive, the potency comes from a doubtful curve fit.
# Assay: qHTS Assay to Find Inhibitors of Chronic Active B-Cell Receptor Signaling;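 as to activity change, negative = inhibition: plate controls were basal doxycycline-induced cells for no effect and cells given 10 µM MG132 for full effect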
# Conditions: ABC-DLBCL IkBa-CBG/CBR reporter, luminescence ratio (green luciferase fused to IkBa over red control in TMD8 lymphoma cells), 4 h; activity change, negative = inhibition: at 46.1 µM (top of the series)
# How it was run: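 Cell line TMD8 (human ABC DLBCL), stably expressing tet-inducible CBG68-IkBa fusion and CBR; IMDM/0.5% FBS; cpd up to 46 uM; dox induction, 4 h, 37C/5% CO2; dual luminescence; green/red ratio; MG132 control.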
# Potency is read from the fitted curve at half-maximal effect.
SMILES,"activity change, negative = inhibition",Potency
Cc1cc(C)n2c(SC(C)C(=O)NC3(C#N)CCCCC3)nnc2n1 (stereo not given),inactive: -1.1%,
COC(=O)C1=C(C)N(CC2CCCO2)C(=O)/C1=C\c1ccc(O)cc1 (stereo not given),,"inconclusive: 13 µM [rising, partial curve]"
CCCCCNS(=O)(=O)c1cc2c3c(c1)CCC(=O)N3CCC2,inactive: -3.56%,
C/C(CC(O)(/C=N/O)c1ccccc1)=N\O (stereo not given),inconclusive: 4.04%,
CCCSc1nc(C)cc(=O)[nH]1,inconclusive: 1.07%,
COc1ccc(C(=O)NCCCN2CCCC2=O)cc1,,"inconclusive: 0.58 µM [rising, full curve, poor fit]"
O=c1c2ccccc2nnn1CSc1nnc(-c2cccc(S(=O)(=O)N3CCCCC3)c2)o1,inconclusive: -15.3%,
CCN(CC)S(=O)(=O)c1ccc2c(c1)c(C(=O)O)cn2C,inconclusive: 0.0726%,
CCOC(=O)c1ccc(CNC(=O)CSc2nnnn2-c2ccc(Cl)cc2)o1,inconclusive: 13.7%,
Clc1ccc(CNc2cnccn2)cc1Cl,inconclusive: 3.99%,
COc1cc(/C=C2/SC(=NCc3ccccc3)N(Cc3ccccc3)C2=O)ccc1O,inconclusive: 18.9%,
COCc1cc(=O)[nH]c(/N=C(\N)Nc2ccc(C)cc2C)n1,inconclusive: 10.2%,
Cc1ccc(Cl)cc1NC(=O)CN1C(=O)NC2(CCCCCC2)C1=O,inactive: 0.105%,
O=C(NCCS(=O)(=O)NCC1CCCO1)c1ccccc1 (stereo not given),inconclusive: -2.19%,
CCc1ccccc1NC(=O)NC1CC2CCC(C1)N2Cc1cccs1 (stereo not given),inactive: -0.374%,
CCn1c(SCC(=O)Nc2cccc(C)c2)nc2ccccc2c1=O,inconclusive: -6.59%,
O=C(Nc1cc(N2CCOCC2)ncn1)NC1(C(F)(F)F)Oc2ccccc2O1,inconclusive: -27.8%,
CC12CCC(=O)N1C(C(=O)Nc1nc3ccc(S(C)(=O)=O)cc3s1)CS2 (stereo not given),inactive: -1.36%,
COc1cc(/C=C2\C(C)=C(C#N)c3nc(N)c(C#N)c(C)c32)ccc1OCC(=O)O,inactive: 3.16%,
Cc1cc(Br)cc(C)c1NC(=O)c1ccc(C#N)cc1F,inconclusive: 4.03%,
COc1cccc(CN(C)C(c2ccccc2)c2ccccc2)c1OC,,"inconclusive: 10 µM [rising, partial curve, poor fit]"
CC1(C)O[C@@H]2[C@H](O1)[C@@H](CO)O[C@H]2n1cc(Br)c(=O)[nH]c1=O,inconclusive: 5.48%,
Cc1ccnc2nc(NC(=O)c3ccco3)nn12,,"inconclusive: 35.5 µM [falling, single point]"
CCOC(=O)C1=NN(c2ccccc2)C2(S1)SC(C(C)=O)=C(C)N2c1ccccc1 (stereo not given),inconclusive: 17.3%,
Cc1c(C(=O)Nc2cc(F)cc(F)c2)cnn1-c1ccccc1,inconclusive: -0.476%,
O=C(/C=C/c1ccc(Cl)cc1)NC(=S)Nc1ccc(CN2CCOCC2)cc1,inactive: 1.75%,
COc1cc(CNC(C)C23CC4CC(CC(C4)C2)C3)ccc1OCC(=O)NC(C)(C)C (stereo not given),inconclusive: -7.95%,

# 2 entries from above, tab-delimited.
SMILES	activity change, negative = inhibition	Potency
Cc1cc(C)n2c(SC(C)C(=O)NC3(C#N)CCCCC3)nnc2n1 (stereo not given)	inactive: -1.1%	
COC(=O)C1=C(C)N(CC2CCCO2)C(=O)/C1=C\c1ccc(O)cc1 (stereo not given)		inconclusive: 13 µM [rising, partial curve]

# Later entries

SMILES,"activity change, negative = inhibition",Potency
Cc1cc(N2CCCC2)c(C)cc1C=O,,"inconclusive: 16.4 µM [falling, partial curve, poor fit]"
N=C1/C(=C\c2ccc(-c3ccc(C(=O)O)cc3)o2)C(=O)N=C2SC=C(c3ccccc3)N12,,"inconclusive: 1.12 µM [falling, full curve, poor fit]"
COc1ccc(CNC(=O)NC2CCCCC2)cc1,inconclusive: 1.06%,
Cc1ccc(C(=O)NC(=S)/C=C2\N(C)c3ccccc3C2(C)C)cc1,inconclusive: 17.5%,
COc1ccccc1NC(=O)/C(C#N)=C/c1cc([N+](=O)[O-])ccc1N1CCCC1,,"inconclusive: 18.4 µM [falling, partial curve, poor fit]"
CCN(CC)CCN(CC(=O)N(C1CCCCC1)C1CCCCC1)C(=O)c1ccco1,inconclusive: -14.7%,
Fc1nc(F)c(F)c(NCCCNc2c(F)c(F)nc(F)c2F)c1F,inconclusive: 13.1%,
COc1ccc(OC)c2[nH]c(=O)c(CCNC(=O)C3CCCCC3)cc12,inconclusive: 6.84%,
CC12CCC(C(=O)NCCN3CCCCC3)(CC1=O)C2(C)C (stereo not given),inconclusive: 3.16%,
O=C(NC1=C(NC2CCS(=O)(=O)C2)C(=O)c2ccccc2C1=O)c1ccccc1 (stereo not given),,"inconclusive: 25.1 µM [falling, single point]"
Cc1cc(NC(=O)CN2CCc3ccccc3C2)nc2c1c(=O)oc1ccccc12,,"inconclusive: 15.8 µM [rising, partial curve, poor fit]"
Cc1nc2ccc(C(=O)c3ccccc3)cc2[nH]1,inconclusive: -5%,
CCCn1c(SCC(=O)Nc2cc(S(=O)(=O)N3CCCCC3)ccc2C)n[nH]c1=O,inconclusive: -25.3%,
O=C(N/C(=C/c1ccccc1Cl)C(=O)N1CCOCC1)c1ccccc1,inconclusive: 1.04%,
CC(C)COc1cccc(C(=O)Nc2ccc(S(=O)(=O)N3CCOCC3)cc2)c1,inconclusive: -29.2%,
O=[N+]([O-])c1cc(/C=N/O)ccc1Oc1ccccc1Cl,,"inconclusive: 35.5 µM [falling, single point]"
O=C(NC(=S)Nc1ccc(NC(=O)c2cccs2)cc1)c1cc2ccccc2o1,inconclusive: -0.175%,
COc1ccc(-n2c(C)c([N+](=O)[O-])c3ccc(O)c(CN4CCCCC4)c32)cc1,,"inconclusive: 1.84 µM [rising, full curve, poor fit]"
COc1cc2ccccc2cc1C(=O)N/N=C/c1ccc2c(c1)OCO2,,"inconclusive: 10 µM [cytotoxic, partial curve]"
COc1cccc(OC)c1C(=O)Nc1sc2c(c1C(N)=O)CCN(Cc1ccccc1)C2,inconclusive: 11.3%,
CC(=O)N1CCN(C(=O)c2ccc(Oc3ccccc3)cc2)CC1,,"inconclusive: 3.98 µM [falling, single point]"
O=C(Nc1ccccc1Cl)c1ccc(S(=O)(=O)NCC2CCCO2)cc1 (stereo not given),inactive: 5.3%,
COc1ccc(C(=O)Nc2nncs2)cc1S(=O)(=O)N1CC(c2ccccc2)CC1=O (stereo not given),inconclusive: 17.5%,
Cc1cc(C(=O)CSc2nc3ccccc3o2)c(C)n1C1CC1,inconclusive: -3.77%,
CC(=O)CC(=O)Nc1ccc(Nc2ccccc2)cc1,inconclusive: -13.4%,
CC1=C(C(=O)OC2CCCCC2)C(c2ccc(N(C)C)cc2)NC(=O)N1 (stereo not given),inactive: -0.592%,
CSc1nnc(-c2ccco2)c(-c2ccco2)n1,inactive: 1.88%,

# Of the compounds above, three contain a nitro group on carbon.
SMILES,"activity change, negative = inhibition",Potency
COc1ccccc1NC(=O)/C(C#N)=C/c1cc([N+](=O)[O-])ccc1N1CCCC1,,"inconclusive: 18.4 µM [falling, partial curve, poor fit]"
O=[N+]([O-])c1cc(/C=N/O)ccc1Oc1ccccc1Cl,,"inconclusive: 35.5 µM [falling, single point]"
COc1ccc(-n2c(C)c([N+](=O)[O-])c3ccc(O)c(CN4CCCCC4)c32)cc1,,"inconclusive: 1.84 µM [rising, full curve, poor fit]"

# (further entries)

SMILES,"activity change, negative = inhibition",Potency
Cc1ccc(CNC(=O)Cc2ccc(-n3c(=O)[nH]c4ccsc4c3=O)cc2)cc1,,"inconclusive: 7.31 µM [falling, partial curve]"
CCN(CC(=O)Nc1ccc(NC(C)=O)cc1)C(=O)C1(c2ccccc2)CC1,inconclusive: -0.141%,
CN(C)c1ccc(Nc2ncnc3ccc(Br)cc23)cc1,inconclusive: -12.9%,
Cc1cc(C(=O)O)ccc1NCc1ccncc1,inconclusive: -1.35%,
Cc1ccc2nc(Nc3ccc(C)c(C)c3)c3nncn3c2c1,inconclusive: 11.9%,
COc1cccc(C(=O)NNC(=O)c2ccccc2Br)c1,,"inconclusive: 12.6 µM [falling, partial curve]"
COc1ccc(N2CCN(S(=O)(=O)c3ccc(F)c(C(=O)Nc4ccccc4Cl)c3)CC2)cc1,inconclusive: -0.472%,
COc1ccc(OC)c(NC(=O)c2oc(=O)c3ccccc3c2-c2ccccc2)c1,inconclusive: -10.1%,
CCOc1ccccc1NC(=O)CSc1nnnn1Cc1ccccc1,inactive: -18.2%,
CC1CC(C)CN(C(=O)COC(=O)CCC(=O)c2cccs2)C1 (stereo not given),inconclusive: 3.95%,
Cc1cccc(C)c1NC(=O)CN(C)C(=O)c1ccccc1OCc1ccc(F)cc1,inactive: -0.624%,
c1cc(-c2noc(CCC3CCCC3)n2)ccn1,inconclusive: 9.66%,
Cc1csc2ncc(C(=O)NCCc3ccccc3)c(=O)n12,,"inconclusive: 25.9 µM [falling, partial curve, poor fit]"
Cc1nc2cc(Nc3nnc(-c4ccccc4)c4ccccc34)ccc2n1C,,"inconclusive: 20 µM [falling, single point]"
CCc1ccc(NC(=O)C2CCN(S(=O)(=O)c3ccc4c(c3)NC(=O)CO4)CC2)cc1,inconclusive: -5.13%,
CC(/C=N/NC(=O)c1cc(-c2ccc(Cl)cc2)nc2ccccc12)=C\c1ccco1,,"inconclusive: 2.59 µM [falling, full curve, poor fit]"
O=C(O)c1ccccc1C(=O)NCc1ccc2c(c1)OCO2,inactive: -9.71%,
COc1ccc(Sc2nc(-c3ccccn3)ncc2OC)cc1,inactive: -12.7%,
O=C(OCC#CCSc1nnc(-c2cccc3ccccc23)o1)c1cnc[nH]1,,"inconclusive: 29.1 µM [falling, single point]"
Cc1cc(NC(=O)c2ccccc2O)nc(C)n1,inconclusive: -15.3%,
COC(=O)[C@H](Cc1ccc(O)cc1)NC(=O)Cn1cnc(C(=O)Nc2ccc(C)c(C)c2)n1,inconclusive: -19.5%,
O=C(N(c1ccccc1)c1ccccc1)N(c1ccccc1)c1ccccc1,,"inconclusive: 31.6 µM [falling, single point]"
CCCOc1ccc(C(=O)NNC(=S)NC(=O)c2cc(-c3ccc(Cl)cc3)nc3ccccc23)cc1,inconclusive: 5.42%,
O=C(N/N=C/c1cn(-c2ccccc2)nc1-c1cc2ccccc2o1)c1cccnc1,inconclusive: 0.952%,
COc1cccc(NC(=O)c2ccc3c(c2)OCO3)c1,,"inconclusive: 8.91 µM [falling, partial curve]"
CC(=O)c1c(C)[nH]c(C(=O)Nc2cccc(S(=O)(=O)N3CCCCC3)c2)c1C,inconclusive: -11.8%,
